Assay results

Data taken from PubChem BioAssay AID1159506, deposited by NCATS (2015).

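Luminescence from an EWS-FLI1 target-promoter (NR0B1) reporter, set against a CMV-promoter reporter, two days after silencing single genes in TC32 Ewing sarcoma cells. Each siRNA was applied at 20 nM. A z-score of the log NR0B1-over-CMV signal, less the median of siRNAs with the same seed; more negative means a stronger specific loss of the NR0B1 reporter.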

The strongest results of the screen are mostly left out here. Sequences are the guide (antisense) strand, without overhang.

| # | Sequence | target gene | seed-corrected z-score |
|---|---|---|---|
| 1 | `UCGGACUCGAUAAAUAAGC` | RIT1 | 0.1994 |
| 2 | `UACGGUAUAAUAAUAGAGG` | WT1-AS | -0.1084 |
| 3 | `UUCAUACUCAGCUCUAUAG` | KLHL15 | -0.6083 |
| 4 | `UCAGCUCCAACGACUUGUC` | ENGASE | 1.23 |
| 5 | `UUAAUGUCCAGCAAGGUCG` | BAIAP3 | 0.9172 |
| 6 | `UGAUAUCAGAGUUCAGCUG` | SYNE2 | 0.3184 |
| 7 | `UAUGAAACAAGCUACAUUU` | FIGNL2 | -0.5388 |
| 8 | `UGCACUAUCAGCAAGAGGG` | SEMA4A | 0.02842 |
| 9 | `UCUAUAAUACACUUGCUCC` | DKFZP434I0714 | 0.3303 |
| 10 | `UAGGAUACAAAAGCUUGGG` | IL1RAPL1 | -0.007249 |
| 11 | `UGUUUUAAAGUUCUGUUGC` | NIT1 | 0.6597 |
| 12 | `UAACCGUAGAGAGCACGUG` | ADGRF5 | -0.0928 |
| 13 | `UCUUGGAUAAGUCUCUCCA` | CKMT1B | 0.6299 |
| 14 | `ACUAGUAUCACGUAAAGGC` | EXTL3 | 0.01937 |
| 15 | `UGAACAUCACGGAGCAUGC` | RNF44 | 0.2256 |
| 16 | `UGCUUUUCUAGUUUCCAGC` | SERGEF | 0.5173 |
| 17 | `AGCAGGUACACUGACGUGG` | NLRP6 | 1.014 |
| 18 | `UCAAUAAUCAGAGAGAAGG` | DLL1 | -0.09911 |
| 19 | `UGACGAACUGCUUGAAGCG` | SOWAHA | -0.6684 |
| 20 | `AGAGUGAUGGUAGAUGUGG` | PCDH19 | 0.7463 |
| 21 | `UUCUUGAAACACUCGAUUC` | ZG16 | 0.08276 |
| 22 | `UUUUCCUCAGCUAAGAAGC` | RDH11 | 0.1248 |
| 23 | `UUUCAUGCCUGCACUGUUC` | DMP1 | -0.6232 |
| 24 | `UUUUUGACCAAUCUGGAUC` | PLPP1 | 0.2854 |
| 25 | `UCAGAUGUUAGCCUAGUGA` | ATP6V0E2-AS1 | 0.4368 |
| 26 | `UGAUGUAUAGGGUUUAGUG` | CD34 | -0.6082 |
| 27 | `UCAGUGUUGGUUAUCAGUG` | ST14 | 0.5537 |
| 28 | `ACAGGUCACCCAUCUGUCU` | TNFAIP8L1 | 1.098 |
| 29 | `UCUUUACUACGGAUAGAUC` | LEUTX | 1.585 |
| 30 | `UGAUGUCAAAGAACCGGUG` | OR52B2 | -0.4594 |
| 31 | `UAAGUAGAGCUGGAUGUUU` | OR2T29 | -1.98 |
| 32 | `UGUGCAUCCAGAGUACGUG` | MED25 | 2.04 |
| 33 | `UGUUUUUCAUGUCACUCUC` | PNPLA10P | -0.5196 |
| 34 | `UCCGGAACUUGACAUAGAC` | U2AF1L4 | 0.1164 |
| 35 | `UUCCGUUUACCAUCUGGUG` | PPFIBP2 | 0.5539 |
| 36 | `UUUUGUCUCCGUUACCAAG` | LOC644841 | 0.7689 |
| 37 | `UGAUUUAAGGCUGAGUCCC` | C21orf62 | 0.9027 |
| 38 | `UGCAGGGAAAGAACGGUCG` | GJC2 | -0.8152 |
| 39 | `UAUUUCGUAGUUUAGACUG` | NUP153 | -0.779 |
| 40 | `UAUAUCUGAAUCACUCGUG` | MORC1 | 0.4288 |
| 41 | `AAGAUAAUAAAUGCGCUUG` | PYGB | 0.1065 |
| 42 | `AGGUUUAUGAUGUAGAGGC` | HTR3C | 3.461 |
| 43 | `AUAGGCAUUAUGACUGAUG` | METAP1D | 0.6046 |
| 44 | `UUCCGUAGCAAUUUCUUGU` | CCDC59 | 0.3912 |
| 45 | `UGUCUUUAUGCUCCAAUGC` | TMOD3 | -0.2384 |
| 46 | `UCUUUUAUGAAGCAGGCAG` | CCDC190 | 0.3953 |
| 47 | `UCCGUCUCCACACUUCUCU` | H1FNT | 0.02033 |

Repeated from the top, 4 entries:

For UCGGACUCGAUAAAUAAGC against RIT1 the result was seed-corrected z-score 0.1994.
For UACGGUAUAAUAAUAGAGG against WT1-AS the result was seed-corrected z-score -0.1084.
For UUCAUACUCAGCUCUAUAG against KLHL15 the result was seed-corrected z-score -0.6083.
For UCAGCUCCAACGACUUGUC against ENGASE the result was seed-corrected z-score 1.23.